# Some of the results follow. The main result of the screen is listed elsewhere. These columns were measured beside it and carry no call. Compounds called inactive in the main read-out are mostly missing here. The note in brackets gives the kind of curve behind each potency; many fits are weak.
# Experiment: qHTS Assay for Lipid Storage Modulators in Drosophila S3 Cells;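 as to cell number change: cells counted by Cell Tracker Red CMTPX staining in the red channel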
# Conditions: BODIPY lipid droplet fluorescence, 18-24 h; for cell number change: measured here: cell count max response, cells fed with added oleic acid
# How it was run: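 Drosophila S3 cells got compounds at several concentrations plus oleic acid (400 uM solution). Laser-scanning cytometry with 488 nm excitation read lipid droplets at 500-530 nm and cells at 575-640 nm. Percent activity was relative to 20 uM Triacsin C.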
# [1] = measured here: lipid fluorescence (Fed channel) AC50, cells fed with added oleic acid
# [2] = measured here: cell number channel AC50, cells fed with added oleic acid
smiles,measurement,setting,value
CN(CC(=O)Nc1ccccc1Cl)C(=O)CSc1nncn1C,cell number change,,-12.8%
same,AC50,[1],"3.26 µM [falling, single point]"
Cn1cc([C@@H]2C[C@H]3CN(C4CCCC4)C(=O)[C@]34CCCN24)c(-c2ccccc2)n1,cell number change,,-32.6%
same,AC50,[2],"8.2 µM [falling, partial curve]"
same,AC50,[1],"7.31 µM [falling, partial curve]"
CCN(CC)C(=S)Sc1c(-c2ccccc2)c2cc(Cl)ccc2[nH]c1=O,cell number change,,-32.2%
same,AC50,[2],"25.9 µM [falling, single point]"
same,AC50,[1],"0.291 µM [falling, partial curve, poor fit]"
O=C1CN(C(=O)/C=C/c2ccc(Cl)cc2Cl)CCN1,cell number change,,7.43%
same,AC50,[1],"0.731 µM [falling, single point]"
CN1CCc2nc(SCCOc3ccccc3)c(C#N)cc2C1,AC50,[2],"4.61 µM [rising, single point]"
same,AC50,[1],"0.58 µM [rising, single point]"
COc1ccc2cc(C(=O)C3CCCN(Cc4ccccn4)C3)ccc2c1 (centres undefined),AC50,[1],"29.1 µM [rising, single point]"
COc1cc([C@H]2[C@@H]3CCCC[C@]3(O)CCN2CC(=O)Nc2ccc(C)cc2C)ccc1O,cell number change,,3.78%
same,AC50,[1],"1.64 µM [rising, partial curve]"
COc1cccc(NC(=O)C2CCCN2C(=O)OCc2ccccc2)c1 (centres undefined),AC50,[2],"4.11 µM [rising, single point]"
CC1CCCCC1NC(=O)c1cn(C)c2ccc(S(=O)(=O)N3CCOCC3)cc2c1=O (centres undefined),cell number change,,-9.16%
same,AC50,[1],"29.1 µM [rising, partial curve]"
S=C(NCCc1ccccc1)N/N=C/c1ccc(Cl)cc1,cell number change,,12%
O=C(CNc1ccccc1)Nc1ccc(F)cc1,cell number change,,7.34%
same,AC50,[1],"14.6 µM [rising, partial curve, poor fit]"
Cc1ccc(-c2c(C(=O)N/N=C/c3c[nH]c4ccccc34)nnn2-c2nonc2N)cc1,AC50,[1],"18.4 µM [falling, partial curve]"
CC(=O)N1CCCc2cc(S(=O)(=O)N3CCCC(C(=O)Nc4ccccc4C)C3)ccc21 (centres undefined),cell number change,,12.5%
same,AC50,[1],"29.1 µM [rising, single point]"
Cc1cc(S(=O)(=O)NC(C)C)ccc1OCC(=O)Nc1ccc2c(c1)OCCO2,cell number change,,-14.3%
same,AC50,[1],"0.082 µM [falling, full curve, poor fit]"
CCN1C2=NCCCN2c2ccccc21,cell number change,,-37.7%
same,AC50,[2],"3.66 µM [falling, full curve]"
same,AC50,[1],"8.2 µM [falling, partial curve]"
CC1(C)CC(=O)c2cnc(NCc3ccco3)nc2C1,AC50,[2],"6.51 µM [rising, single point]"
CCOc1cc(CO)cc(Br)c1OCC(N)=O,cell number change,,-10.8%
same,AC50,[2],"0.00461 µM [falling, full curve, poor fit]"
Cc1cccc(-c2c3c(=O)n(C)c(=O)n(C)c3cn2-c2ccccc2O)c1,cell number change,,-18.9%
S=C(Nc1cccnc1)Nc1ccccc1Br,cell number change,,133%
CO/N=C(\C)C(Cc1ccc(Cl)nc1)Cc1ccc(Cl)nc1,cell number change,,5.79%
same,AC50,[1],"29.1 µM [rising, partial curve]"
CCCn1c2ccccc2c2nnc(SCC(=O)Nc3ncccn3)nc21,AC50,[1],"0.82 µM [rising, single point]"
COc1cc2c(cc1OC)C(c1ccccc1)N(C(=O)c1ccccc1)CC2 (centres undefined),cell number change,,15.2%
O=C(Nc1ccc(NC(=O)C2CCCCC2)nc1)c1cccs1,cell number change,,-17.9%
same,AC50,[1],"29.1 µM [falling, single point]"
CC1(C)Cc2cccc(OCC(=O)N3CCN(c4cccc(Cl)c4)CC3)c2O1,AC50,[2],"0.206 µM [falling, full curve, poor fit]"
C=C(C)CCOC(=O)C(CC(=O)O)NCc1ccco1 (centres undefined),cell number change,,-12.9%
same,AC50,[1],"0.00461 µM [falling, full curve, poor fit]"
O=C(NC1CCN(Cc2ccccc2)CC1)c1cn(-c2ccccc2)nc1-c1cccnc1,cell number change,,6.68%
C=C[C@@H]1c2c(F)cccc2N(S(=O)(=O)c2ccc(C)cc2)[C@H](c2ccc(C(=O)OC)cc2)C1(C#N)C#N,cell number change,,-9.51%
same,AC50,[1],"0.731 µM [falling, single point]"
O=C(Nn1c(COc2ccccc2)nc2ccccc2c1=O)C(Cl)(Cl)Cl,AC50,[2],"7.31 µM [falling, single point]"
CNc1cc(N2CCN(S(=O)(=O)N(C)C)CC2)ccc1[N+](=O)[O-],cell number change,,-27.2%
same,AC50,[2],"0.13 µM [falling, full curve, poor fit]"
same,AC50,[1],"0.13 µM [falling, full curve]"
Cc1oc(-c2ccc(Cl)cc2)nc1CN1CCCC(C(=O)N2CCOCC2)C1 (centres undefined),cell number change,,24.8%
CN(C)c1ccc(C2CC(=O)NC3=C2C(=O)CC(C)(C)C3)cc1 (centres undefined),cell number change,,7.22%
CSc1cccc(NS(=O)(=O)c2ccc3c(c2)NC(=O)C(C)C(=O)N3)c1 (centres undefined),cell number change,,0.576%
same,AC50,[1],"0.651 µM [rising, full curve, poor fit]"

# No new results follow: an excerpt of the list.
smiles,measurement,setting,value
CC1(C)Cc2cccc(OCC(=O)N3CCN(c4cccc(Cl)c4)CC3)c2O1,AC50,[2],"0.206 µM [falling, full curve, poor fit]"
C=C(C)CCOC(=O)C(CC(=O)O)NCc1ccco1 (centres undefined),cell number change,,-12.9%

# A second format for some results above:
smiles | measurement | setting | value
Cn1cc([C@@H]2C[C@H]3CN(C4CCCC4)C(=O)[C@]34CCCN24)c(-c2ccccc2)n1 | AC50 | [2] | 8.2 µM [falling, partial curve]
CSc1cccc(NS(=O)(=O)c2ccc3c(c2)NC(=O)C(C)C(=O)N3)c1 (centres undefined) | cell number change |  | 0.576%

# Source: PubChem BioAssay AID2685 (National Center for Advancing Translational Sciences (NCATS), 2010)
